Test results published in PubChem BioAssay AID1445 (SRMLSC, 2008).
About 910 (0.41%) of roughly 220,000 compounds were called active. Inconclusive results, whose numbers are uncertain, are shown with a selection of clear calls.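 How the source made its calls: active means primary inhibition above the hit cutoff, then over 50% inhibition at one or more dose response concentrations (cut at about 23% in these data, passing the limit was not always enough); inconclusive means conflicting primary data, or primary hits not chosen for dose response; inactive means low primary inhibition, or under 50% at every dose.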

Amino acid sequences for entries named in this document (tags omitted). A change or cut given only in a name is not applied to a line headed by its entry.
UniProt O96935: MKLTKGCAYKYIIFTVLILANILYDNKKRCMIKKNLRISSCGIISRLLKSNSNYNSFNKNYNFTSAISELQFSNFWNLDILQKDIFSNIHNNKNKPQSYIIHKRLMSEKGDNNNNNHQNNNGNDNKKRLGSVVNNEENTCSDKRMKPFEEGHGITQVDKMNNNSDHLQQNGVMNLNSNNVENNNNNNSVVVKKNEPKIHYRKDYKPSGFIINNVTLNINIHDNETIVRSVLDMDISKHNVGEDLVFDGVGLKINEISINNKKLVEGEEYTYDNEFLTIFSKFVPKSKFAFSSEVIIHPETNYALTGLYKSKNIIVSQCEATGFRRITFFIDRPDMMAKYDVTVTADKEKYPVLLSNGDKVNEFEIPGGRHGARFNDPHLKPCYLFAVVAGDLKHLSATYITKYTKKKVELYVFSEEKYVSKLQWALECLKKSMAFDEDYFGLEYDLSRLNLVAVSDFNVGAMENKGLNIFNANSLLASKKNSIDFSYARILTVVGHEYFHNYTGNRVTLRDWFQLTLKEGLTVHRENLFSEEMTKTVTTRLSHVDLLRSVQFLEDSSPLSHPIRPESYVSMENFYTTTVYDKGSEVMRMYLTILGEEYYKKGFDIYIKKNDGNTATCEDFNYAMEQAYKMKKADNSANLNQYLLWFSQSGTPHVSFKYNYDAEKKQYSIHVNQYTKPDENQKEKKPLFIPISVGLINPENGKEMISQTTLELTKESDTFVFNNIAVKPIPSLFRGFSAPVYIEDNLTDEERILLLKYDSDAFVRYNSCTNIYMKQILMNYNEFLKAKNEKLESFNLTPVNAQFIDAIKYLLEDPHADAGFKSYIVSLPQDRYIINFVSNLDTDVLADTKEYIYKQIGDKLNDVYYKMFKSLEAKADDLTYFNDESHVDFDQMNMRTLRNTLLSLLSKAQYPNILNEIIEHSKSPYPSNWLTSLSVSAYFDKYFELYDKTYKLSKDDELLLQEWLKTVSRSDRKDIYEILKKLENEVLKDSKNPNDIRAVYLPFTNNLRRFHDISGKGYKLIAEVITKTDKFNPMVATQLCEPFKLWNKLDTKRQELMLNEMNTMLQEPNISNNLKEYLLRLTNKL

The compounds below were run against Aminopeptidase N (Plasmodium falciparum (isolate 3D7)) (UniProt O96935) (assay: P. falciparum M1AAP inhibitors, biochemical, fluorogenic H-Leu-NHMec substrate, 1536-well (AID 1445;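 further: plate controls were DMSO full reaction for no effect and no enzyme background for full effect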)). Conditions: recombinant M1AAP, H-Leu-NHMec fluorogenic kinetic assay; at 30 µM, hits give high values unless noted.
With `O=C(N/N=C/c1ccc([N+](=O)[O-])s1)c1ccncc1` the inhibition was inconclusive: 24.6%. In the case of `COC(=O)c1ccc(-n2nnnc2SC)cc1`, the inhibition is reported as active: 26.3%. In the case of `CSc1ccc(C2C(C#N)=C(N)Oc3c2ccc(=O)c2c(C)oc(C)c32)cc1` (stereo not drawn), the inhibition is reported as active: 23.3%. With `Cc1nc(SCC(=O)N2c3ccccc3Sc3ccccc32)n[nH]1` the inhibition was inactive: 4.61%. `Cc1cc(C)c(S(=O)(=O)NCC(=O)O)cc1C` was tested, and the inhibition was inactive: -7.15%. For `O=C(NNC(=O)c1ccccc1O)c1ccco1`, the inhibition was inactive: 5.04%. In the case of `CC1(C)CC(=O)C2=C(C1)c1c(ccc3ccccc13)NC2c1ccco1` (stereo not drawn), the inhibition is reported as inactive: 0.07%. With `O=c1[nH]c2cc3c(cc2cc1CN(Cc1cccnc1)Cc1nnnn1Cc1ccco1)OCCO3` the inhibition was active: 26.5%. For `Cc1c(O)ccc2c(O)c(NC(=O)c3ccc4c(c3)CCC(C)(C)O4)c(=O)oc12`, the inhibition was inconclusive: 27.6%. `CSCCC1C(C#N)=C(N)Oc2n[nH]c(-c3cccs3)c21` (stereo not drawn) was tested, and the inhibition was active: 23.8%. With `Cc1nc(NC2=NCN(CCCN3CCOCC3)CN2)nc2c(C)cccc12` the inhibition was active: 29.4%. With `Cc1ccc(C(=O)OCC(=O)NCc2ccc3c(c2)OCO3)s1` the inhibition was inconclusive: 27.9%. With `COc1ccc(Cl)cc1N(CC(=O)Nc1ccccc1C(=O)NCc1ccco1)S(C)(=O)=O` the inhibition was inconclusive: 26%. With `Cn1c(SCC(=O)Nc2ccc3c(c2)oc2ccccc23)nnc1-c1ccccc1` the inhibition was active: 25.6%. `O=C1c2ccccc2NC2(CCCCC2)N1N=C1CCCCC1` was tested, and the inhibition was inconclusive: 27.6%. For `COc1ccc(S(=O)(=O)NCCC(C)C)cc1OC`, the inhibition was inactive: -0.02%. With `COc1ccccc1NC(=O)Nc1ccccc1N1CCOCC1` the inhibition was inactive: 3.89%. With `Cc1ccc(-c2nnc(Nc3ccc4c(c3)nc(C)n4C)c3ccccc23)cc1` the inhibition was inconclusive: 25.2%. For `Cc1cc(C)c2ccc(C(=O)O)nc2c1O`, the inhibition was inconclusive: 23.4%. `Cc1ccc(C(=O)NN2C(=O)/C(=C/c3cccn3C)SC2=S)cc1` was tested, and the inhibition was inconclusive: 23.9%. In the case of `COc1ccc(N2CCN(CC(=O)Nc3nnc(-c4ccccc4)s3)CC2)cc1`, the inhibition is reported as active: 23.4%. In the case of `COc1ccccc1CNC(=O)C1CCCN(S(=O)(=O)c2cnc[nH]2)C1` (stereo not drawn), the inhibition is reported as active: 23.9%. In the case of `Cn1c(CNc2ccccc2O)nc2ccccc21`, the inhibition is reported as active: 25%. In the case of `NNC(=O)c1ccc(O)cc1O`, the inhibition is reported as inactive: 11.6%. With `CCOc1cc(N2CCOCC2)c(OCC)cc1NC(=O)c1ccc(S(C)(=O)=O)cc1` the inhibition was inactive: 9.02%. In the case of `CC12CC(NC(=O)N1Cc1ccccc1)c1ccccc1O2` (stereo not drawn), the inhibition is reported as active: 25.3%. For `O=C(N=Nc1c(O)[nH]c2ccccc12)c1cccs1`, the inhibition was inconclusive: 26.4%. With `Cc1cc(C)c2c(-n3cccc3)c(C(=O)NNS(=O)(=O)c3ccccc3)sc2n1` the inhibition was inconclusive: 43.3%. `O=S(=O)(Nc1cc(Sc2cccc3cccnc23)c(O)c2ccccc12)c1ccc(F)cc1` was tested, and the inhibition was inconclusive: 25.2%. `Cc1ccc(N2NC(=O)/C(=C/c3ccc(-c4ccc(Cl)c(C(=O)O)c4)o3)C2=O)cc1C` was tested, and the inhibition was inconclusive: 24.1%. With `O=C(Cc1ccccc1)N/N=C/c1cc(Br)cc(Cl)c1O` the inhibition was inconclusive: 25.6%. In the case of `COCCCNC(=S)NNC(=O)C(O)(c1ccccc1)c1ccccc1`, the inhibition is reported as inconclusive: 28%. For `O=C(N/N=C/C1CC=CCC1)c1ccc(Cl)cc1O` (stereo not drawn), the inhibition was inconclusive: 24.2%. With `O=C(NC1CCN(C(=S)NCCc2ccccc2)CC1)C1CCCCC1` the inhibition was inactive: -6.9%. With `COc1cc(/C=C2\SC(c3ccc(C)cc3)=NC2=O)ccc1O` the inhibition was inactive: 9.74%. In the case of `CCOC(=O)CCCCC(=O)c1[nH]c(=O)[nH]c1CSc1nc(-c2ccccc2)c(C#N)c(=O)[nH]1`, the inhibition is reported as active: 23.6%. `CCCCSc1nc2[nH]ncc2c(=O)[nH]1` was tested, and the inhibition was inconclusive: 26.6%. For `CCCNC(=O)NCCc1c(C)[nH]c2ccccc12`, the inhibition was active: 23.5%. In the case of `CCOc1cccc2sc(Nc3nc4ccc(NC(C)=O)cc4s3)nc12`, the inhibition is reported as inconclusive: 24.9%. In the case of `CSc1cccc(-n2cc(-c3ccc4c(c3)OCO4)[nH]c2=O)c1`, the inhibition is reported as active: 25.8%. In the case of `O=C1CS/C(=C/C(=O)c2ccccc2)N1`, the inhibition is reported as active: 25.3%. For `c1cc2c3c(cccc3c1)NC1(CCC3(CC1)Nc1cccc4cccc(c14)N3)N2`, the inhibition was inconclusive: 26.7%. `CC1CC(OCC(O)C[N+]2(C)CCOCC2)CC(C)(C)C1` (stereo not drawn) was tested, and the inhibition was inconclusive: 23.3%. For `COc1ccc2[nH]c(=O)c(CN(Cc3nnnn3Cc3ccc(F)cc3)CC3CCCO3)cc2c1` (stereo not drawn), the inhibition was inconclusive: 11.9%. `CCn1c(C(=O)N2CCC(C(=O)NCc3ccc4c(c3)OCO4)CC2)cc2sccc21` was tested, and the inhibition was active: 31.3%. `Cc1cccc(/C=C/C(=O)c2cc(Br)ccc(=O)c2O)c1` was tested, and the inhibition was inconclusive: 23.6%. `COc1ccc(C2C=C(c3ccc(Br)cc3)Nc3nc(N4C(=O)CCC4=O)nn32)cc1` (stereo not drawn) was tested, and the inhibition was inconclusive: 37.3%. In the case of `Cc1ccc2nc(N3C(=O)C(O)=C(C(=O)c4cc5ccccc5o4)C3c3cccs3)sc2c1` (stereo not drawn), the inhibition is reported as inactive: 10.6%. For `Cc1ccc2[nH]c(=O)c(CN(CCCN3CCOCC3)C(=O)Nc3cccc(Cl)c3)cc2c1`, the inhibition was inconclusive: 23.6%. With `COc1cccc(N2C(=O)/C(=C\c3cccs3)NC2=S)c1` the inhibition was inconclusive: 24.6%. With `O=C(O)c1ccc2nc(-c3ccccc3)sc2c1` the inhibition was inconclusive: 23.8%. `CCc1nnc(NC(=O)CSc2nnc(CNc3cccc(C)c3)n2-c2ccccc2)s1` was tested, and the inhibition was inactive: 0.64%. With `CCOC(=O)c1ccc(-n2c(O)c(/C=N/NC(=O)C3COc4ccccc4O3)c3ccccc3c2=O)cc1` (stereo not drawn) the inhibition was inconclusive: 25.1%. `c1ccc(-c2nnc(-c3ccccc3)c(-c3c[nH]c4ccccc34)n2)cc1` was tested, and the inhibition was inconclusive: 25.4%. For `CC1(C)CC(=O)C(/C=N/n2c(C(F)(F)F)nc3ccccc3c2=O)=C(O)C1`, the inhibition was active: 27.5%. With `Cc1ccc(NC(=O)C(OC(=O)c2ccc(C=O)cc2)c2ccccc2)cc1Cl` (stereo not drawn) the inhibition was inconclusive: 25.1%. With `Cc1ccc(-c2cc(-c3ccccc3)c3c(N)c(S(C)(=O)=O)sc3n2)cc1` the inhibition was inactive: 14.5%. In the case of `CCc1cc2cc(OC)ccc2nc1SCC(=O)Nc1cc(OC)c(OC)cc1C(=O)O`, the inhibition is reported as inconclusive: 25.1%. `COc1ccc(CCCC(=O)NC2CCCCC2C)c(C)c1` (stereo not drawn) was tested, and the inhibition was inconclusive: 30.5%. `CCCCN1C(=O)C(O)(CC(=O)c2ccccn2)c2ccccc21` (stereo not drawn) was tested, and the inhibition was inconclusive: 25.9%. In the case of `COc1ccc(-n2c(SCC(=O)NCCC(C)C)nc3ccsc3c2=O)cc1`, the inhibition is reported as inactive: -0.48%. For `CC1=NN(c2ccccc2)C(=O)C1/C=C1\NC(=S)NC1=O` (stereo not drawn), the inhibition was inconclusive: 25.2%. `O=C(CSc1nc2ccccc2n1CC(=O)N1CCCC1)NCc1ccc2c(c1)OCO2` was tested, and the inhibition was inconclusive: 24%. `CCN(CCO)c1nc(SC)nc2c1sc1nc(-c3ccco3)c3c(c12)CCC3` was tested, and the inhibition was inactive: 20%. For `Cc1ccccc1-n1c(SC/C(O)=C(\C#N)c2nc3ccccc3[nH]2)nnc1-c1ccncc1`, the inhibition was inactive: 13.8%. `CC(C)c1onc(C(=O)Nc2sc3c(c2C#N)CCC3)c1[N+](=O)[O-]` was tested, and the inhibition was inconclusive: 24.6%. In the case of `Cc1cccc2cc(CN(CCCO)C(=O)Nc3cccc(Cl)c3)c(=O)[nH]c12`, the inhibition is reported as inconclusive: 25.2%. With `COc1ccc(NC(=O)CSc2nnc(Cc3cccn3C)n2-c2ccc(F)cc2)cc1` the inhibition was active: 23.8%. In the case of `O=C(O[C@@H]1OC2COC(=O)c3cc(O)c(O)c(O)c3-c3c(cc(O)c(O)c3O)C(=O)O[C@@H]([C@H]1O)[C@@H]2O)c1cc(O)c(O)c(O)c1`, the inhibition is reported as inconclusive: 25.4%. In the case of `CCn1c(SCc2ccc(C#N)cc2)nnc1-c1ccc(S(=O)(=O)N2CCCCC2)cc1`, the inhibition is reported as inconclusive: 31.9%. In the case of `O=C(Nc1ccc(S(=O)(=O)Nc2ncccn2)cc1)c1ccccc1NS(=O)(=O)c1ccc(Cl)cc1`, the inhibition is reported as inconclusive: 25.3%. With `CCc1nnc(NS(=O)(=O)c2ccc(NC(=S)NC(=O)c3ccncc3)cc2)s1` the inhibition was inactive: 4.45%. With `CCc1nc(SCc2cccnc2)[nH]c(=O)c1C` the inhibition was inconclusive: 24.4%. `O=C1OCC2=C1C(c1ccccc1)CC(=O)N2c1ccccc1` (stereo not drawn) was tested, and the inhibition was inactive: 5.38%. In the case of `O=C1C(C2=NC(C(=O)O)C3C(=O)N(c4ccccc4)C(=O)C23)=C(O)c2ccccc21` (stereo not drawn), the inhibition is reported as inactive: 10.7%. `CC(C)(C)OC(=O)N1CCCC1C(=O)NCCc1ccccc1` (stereo not drawn) was tested, and the inhibition was inconclusive: 41.4%. In the case of `N#Cc1c(-c2cccc(Cl)c2)[nH]c(=S)[nH]c1=O`, the inhibition is reported as inconclusive: 26.5%. In the case of `Cc1ccc(NC(=O)N2CCC(C(=O)NCc3ccccc3)CC2)cc1`, the inhibition is reported as active: 26.3%. In the case of `O=C(Nn1c(-c2ccccc2)nc2ccccc2c1=O)c1ccco1`, the inhibition is reported as inactive: 15.6%. `C=CCn1c(SCC(C)=O)nnc1-c1cc(-c2ccccc2)sc1N` was tested, and the inhibition was inconclusive: 25%. In the case of `COc1ccccc1N1CCN(c2nc3ccccc3nc2C(C#N)C(=O)OC(C)C)CC1` (stereo not drawn), the inhibition is reported as inactive: 1.03%. `CC(C)(C)c1cc(NCCCn2ccnc2)n2ncc(-c3ccc(Cl)cc3)c2n1` was tested, and the inhibition was inconclusive: 25.3%. For `Cc1nn(-c2ccccc2)c(Cl)c1/C=N/Nc1ccc(S(=O)(=O)Nc2ccccc2C(=O)O)cc1[N+](=O)[O-]`, the inhibition was inconclusive: 25.5%. With `CCOC(=O)Cc1nnc(NC(=O)C(CC)Sc2nnc3c4ccccc4n(C)c3n2)s1` (stereo not drawn) the inhibition was active: 23.4%. For `O=C(Nc1ccc(C(F)(F)F)cn1)Nc1cccs1`, the inhibition was inconclusive: 25.9%. `CCOc1ccc(NC(=O)c2ccccc2NC(=O)CN(C)CC(=O)Nc2ccc(C)cc2)cc1` was tested, and the inhibition was inactive: 1.3%. With `Cc1cccc2cc(COC(=O)c3cccc([N+](=O)[O-])c3)c(=O)[nH]c12` the inhibition was inactive: 3.82%. With `Cc1cccc(-c2cc(N)n(-c3ccccc3)n2)c1` the inhibition was inactive: 15.4%.
